Test results: patent US20210139589A1 (APEXIGEN, published 2021)
Results are given in words; binding and its absence hold for the method and conditions named. Some entries that bind do so weakly or less than the wild type. For part of these data: Sequences can lack the tags named with a protein.

T1: human VISTA expressed on the cell surface (HEK293 cells transfected with human VISTA cDNA; native on human immune cells) (human) (UniProt Q9H7M9)
T1 sequence (looked up): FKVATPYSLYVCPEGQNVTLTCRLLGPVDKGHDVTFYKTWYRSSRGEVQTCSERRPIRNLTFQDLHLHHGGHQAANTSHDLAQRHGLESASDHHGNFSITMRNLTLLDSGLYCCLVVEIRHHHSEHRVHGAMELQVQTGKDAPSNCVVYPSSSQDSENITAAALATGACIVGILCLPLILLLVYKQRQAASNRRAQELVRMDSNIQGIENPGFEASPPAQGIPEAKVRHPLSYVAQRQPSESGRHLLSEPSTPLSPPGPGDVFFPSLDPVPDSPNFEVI

T2: soluble VISTA (UniProt Q9H7M9)
T2 sequence (looked up): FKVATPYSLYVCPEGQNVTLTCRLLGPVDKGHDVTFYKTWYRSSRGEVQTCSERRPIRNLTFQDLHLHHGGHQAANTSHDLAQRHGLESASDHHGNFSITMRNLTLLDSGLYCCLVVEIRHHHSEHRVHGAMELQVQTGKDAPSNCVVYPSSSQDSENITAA

T3: VISTA-his protein (UniProt Q9H7M9)
T3 sequence (looked up): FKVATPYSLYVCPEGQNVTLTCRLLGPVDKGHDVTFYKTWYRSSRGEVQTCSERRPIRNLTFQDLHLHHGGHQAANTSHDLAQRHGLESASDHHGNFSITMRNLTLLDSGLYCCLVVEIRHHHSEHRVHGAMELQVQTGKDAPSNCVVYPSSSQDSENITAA

B1: humanized anti-VISTA antibody 29G7-HZD2 (antibody, human IgG1, kappa, V domains shown)
VH: EVQLVESGGGLVQPGGSLRLSCAASGFSLSSYAMGWVRQAPGKGLEWVGIIIVSGNIYYASWAKGRFTISRDNSKNTLYLQMNSLRAEDTAVYYCARGDGYTYGLWGQGTLVTVSS
VL: DIQMTQSPSTLSASVGDRVTITCQASQSVYSRYLAWYQQKPGKAPKLLIYSASTLASGVPSRFSGSGSGTEFTLTISSLQPDDFATYYCQGTFYIPDYIDGFGGGTKVEIKR
notes: kappa light chain
B2: humanized anti-VISTA antibody 29G7-HZD4 (antibody, human IgG1, kappa, V domains shown)
VH: EVQLVESGGGLVQPGGSLRLSCAASGFSLSSYAMGWVRQAPGKGLEWVGIIIVSGNIYYASWAKGRFTISRDNSKNTLYLQMNSLRAEDTAVYYCARGDGYTYGLWGQGTLVTVSS
VL: EIVMTQSPATLSLSPGERATLSCQASQSVYSRYLAWYQQKPGQAPRLLIYSASTLASGIPARFSGSGSGTDFTLTISSLQPEDFAVYYCQGTFYIPDYIDGFGGGTKVEIKR
notes: kappa light chain
B3: 29G7 human IgG1 chimeric anti-VISTA antibody (antibody, V domains shown)
VH: QSLEESGGRLVTPGTPLTLTCTASGFSLSSYAMGWVRQAPGKGLEWIGIIIVSGNIYYASWAKGQFTISKTSTTVDLKITSPTTEDTATYFCARGDGYTYGLWGQGTLVTVSS
VL: DIVMTQTPASVEAAVGGTVTIKCQASQSVYSRYLAWFQQKPGQPPKLLIYSASTLASGVSSRFKGSGSGTEYTLTISGVQCDDAATYYCQGTFYIPDYIDGFGGGTEVVVK
B4: humanized anti-VISTA antibody 14F1-HZD2 (antibody, human IgG1, kappa, V domains shown)
VH: EVQLLESGGGLVQPGGSLRLSCAASGFSFSSSYYMCWVRQAPGKGLEWVACFYAGFSGSTYYASWAKGRFTISRDNSKNTLYLQMNSLRAEDTAVYYCAKGASTYGYTGYDYAGDYFILWQPGTLVTVSS
VL: DIQMTQSPSSVSASVGDRVTITCQASQNIYSNLAWYQQKPGKAPKLLIYAASNLASGVPSRFSGSGSGTDFTLTISSLQPEDFATYYCQSAYYSSSADSYNAFGGGTKVEIKR
notes: kappa light chain
B5: 2D12 human IgG1 chimeric anti-VISTA antibody (antibody, V domains shown)
VH: LSLEESGGRLVTPGTPLTLTCTVSGIDLSSYAMGWVRQAPGKGLEYIGIISSSGSAFYASWAKGRFTISKTSSTTVDLKMTSPTTEDTATYFCARHYAGYTTPYYFNFWGPGTLVTVSS
VL: AYDMTQTPASVEVTVGGTVTIKCQASENIYSNLAWYQQKPGQPPKVLIYAASDLASGVPSRFKGSGSGTEYTLTISGVECADAATYYCQQGFSSSNVDNAFGGGTEVVVK

What was measured:
[1] = biological target: T1, human VISTA expressed on the cell surface (HEK293 cells transfected with human VISTA cDNA; native on human immune cells) (human); assay: flow cytometry on HEK293 cells transfected with human VISTA
soluble VISTA [2] = biological target: T2, soluble VISTA; assay: ELISA on soluble VISTA
soluble VISTA [3] = biological target: T2, soluble VISTA; assay: ELISA, binding to soluble VISTA
VISTA-his protein [4] = biological target: T3, VISTA-his protein; assay: competition ELISA on coated VISTA-his with biotin-labeled VSTB112
VISTA-his protein [5] = biological target: T3, VISTA-his protein; assay: competition ELISA on coated VISTA-his; pre-incubation with the chimeric antibody, then biotin-labeled VSTB112, detected with streptavidin-HRP

| Binder | binding [1] | binding (soluble VISTA [2]) | binding (soluble VISTA [3]) | binding (VISTA-his protein [4]) | binding (VISTA-his protein [5]) |
| --- | --- | --- | --- | --- | --- |
| B1 | binds | binds | binds |  |  |
| B2 | binds | binds | binds |  |  |
| B3 |  |  |  | binds | binds |
| B4 | binds | binds | binds |  |  |
| B5 |  |  |  | binds |  |
